This passage reports IC50 results from patent US8778984B2, “Aldosterone synthase inhibitor” (Eli Lilly and Company, priority 2011, dated 2014).

The subject of the test is estradiol production from H295R cells. Description: cells. In kind it is cell-based. The settings on record: Homo sapiens, NCI-H295R, 48 h, read-out: Estradiol IC50 (μM). The method, then: The human adrenocarcinoma cell line H295R is used to monitor the production of testosterone and estradiol in vitro. […] Various concentrations of test compounds in 1:3 dilution increments are added to the cell culture medium. After incubation for 48 hours, 100 μl culture medium is collected and d5-estradiol and d3-testosterone are added as ISs for estradiol and testosterone respectively.
An equal volume of sodium carbonate/sodium bicarbonate buffer (0.5 mol/L, pH 9.4) is added to the samples followed by freshly prepared dansyl chloride solution (50 μl, 20 mg/mL). Samples are mixed and incubated for 60 min at 60° C. The samples are then extracted 3× with EtOAc ([…]) using the FX, combining the organic layers in a new deep-well 96-well plate. The solvent is then dried in a GeneVac HT-4 or under nitrogen. The FX is used to reconstitute the samples in 50% MeOH/water ([…]) and the plates are heat-sealed.
A 40 μl aliquot of the sample is injected and a gradient from 20-100% MeOH in 0.95 min is initiated. An ABI QTRAP 4000 tandem mass spectrometer is used for MS/MS analysis in the positive ion mode. […] These peaks are separately integrated to give the peak areas. The area ratios of testosterone/IS and estradiol/IS are used to determine testosterone and estradiol concentrations by comparison to their respective standard curves. […]

SMILES strings stand for the structures.

`N#Cc1ccc(C2CCCc3cncn32)cc1` (stereo not shown) [Fadrozole, fadrozole, reference compound]: the half-maximal inhibitory concentration (IC50) was under 0.0015 µM.

The IC50 is the concentration at which inhibition is half-maximal.
